At least one read-out could not be matched to a standard name with certainty.
B1: 401: native GAT polypeptide corresponding to SEQ ID NO: 6 (protein, listed as Bacillus licheniformis)
chain: MIEVKPINAEDTYEIRHRILRPNQPLEACMYETDLLGGAFHLGGYYRGKLISIASFHKAEHSELEGEEQYQLRGMATLEGYREQKAGSTLIRHAEELLRKKGADLLWCNARTSVSGYYEKLGFSEQGEVYDIPPIGPHILMYKKLT
modifications: ST401 GAT
B2: 17-15H3: evolved GAT; polypeptide SEQ ID NO:601, transgene SEQ ID NO:549 (protein)
chain: MIEVKPINAEDTYELRHRILRPNQPIEACMFESDLLRGAFHLGGYYGGKLISIASFHQAEHSELQGQKQYQLRGMATLEGYREQKAGSSLIKHAEEILRKRGADLLWCNARTSASGYYKKLGFSEQGEVFDTPPVGPHILMYKRIT
modifications: D_S00260796_17-15H3
B3: 25-8H7: further evolved GAT enzyme, SEQ ID NO:907; gene GAT25-8H7/4618 SEQ ID NO:906 (protein)
chain: MIEVKPINAEDTYDLRHRVLRPNQPIEACMFESDLTRSAFHLGGFYGGKLISVASFHQAEHSELQGKKQYQLRGVATLEGYREQKAGSSLVKHAEEILRKRGADMIWCNARTSASGYYRKLGFSEQGEVFDTPPVGPHILMYKRIT
modifications: 25-8H7

Test: GAT activity with substrate L-aspartate (DTNB)
Assay type: biochemical
Description: GAT activity of several GAT polypeptides of the present invention was evaluated with respect to a number of amino acid substrates. The GAT polypeptide, AcCoA and amino substrate were incubated in 25 mM Hepes, pH 6.8, 10% ethylene glycol in the wells of a 96-well polystyrene plate. After 30 minutes, the reactions were stopped by the addition of 30 μl of 10 mM 5,5′-dithiobis-2-nitrobenzoate (DTNB) in 500 mM Tris, pH 7.5. After 2 minutes, absorbance was read at 412 nm in a Spectramax Plus plate reader (Molecular Devices, Sunnyvale, Calif.).

| Molecule | kcat/KM [M⁻¹ s⁻¹] |
| --- | --- |
| B1 | 60 |
| B2 | 2470 |
| B3 | 2570 |

From patent publication US7666644B2, “Glyphosate-N-acetyltransferase (GAT) genes” (Verdia, Inc., priority 2004, dated 2010)
